Here are results for 40 compounds from PubChem BioAssay AID651898 (Broad Institute, 2012).

This is one part of the list. These are further read-outs of the screen, such as a control signal, another cell line or another target. No call is given for them.

The assay in a line: cytotoxicity in HepG2 cells, dose response, cytotoxicity control, cell-based, plate reader, cherry-pick, two tests (AID 651898). To be noted: measured here: replicate test 2 max activity; at 6 µM unless noted.
In the case of `CCC(=O)N1CC[C@@H]2[C@@H](CO)N(C)c3ccc(-c4cccc(F)c4)cc3[C@@H]21`, the max activity worked out at 5.55% [at 1.6 µM]. Then `C[C@@H]1CN([C@H](C)CO)C(=O)Cc2cc(NC(=O)Cn3cnnn3)ccc2O[C@H]1CN(C)Cc1ccc2c(c1)OCO2`, with -9.47% [at 0.75 µM]; and `COc1cccc(NC(=O)N2C[C@H](O)COC[C@@H]3O[C@@H](CC(=O)N(C)C)CC[C@H]32)c1`, with 13.1%; and `O=C(C[C@@H]1C[C@@H]2c3cc(NC(=O)c4cccnc4)ccc3O[C@@H]2[C@@H](CO)O1)NCc1cccc(F)c1`, with -14.9% [at 0.195 µM]. `COCCNC(=O)C[C@H]1CC[C@@H]2[C@@H](COc3ccc(NC(=O)Nc4cccc(F)c4)cc3C(=O)N2C)O1`: the max activity was -11.3% [at 23.5 µM]. Take `CCC(=O)N1CC[C@@H]2[C@H]1c1cc(-c3cccc(F)c3)ccc1N(C)[C@@H]2CO`: the max activity was -21% [at 0.38 µM]. Then `CCNC(=O)[C@H]1[C@H](CO)[C@H]2Cn3c(ccc(-c4cccc(F)c4)c3=O)[C@H]2N1C(=O)Cc1cccnc1`, with 9.41% [at 0.8 µM]; and `CO[C@H]1CN(C)C(=O)c2ccc(NC(C)=O)cc2OC[C@@H](C)N(C(=O)c2ccc(F)cc2)C[C@H]1C`, with -12.7% [at 3 µM]. The result for `O=C(N[C@H]1CC[C@@H](CCn2cc(-c3cccnc3)nn2)O[C@@H]1CO)c1ccccc1F` reads -13.9% [at 0.38 µM]; that for `COc1ccccc1NC(=O)N[C@@H]1CC[C@H](CCn2cc(-c3cccnc3)nn2)O[C@H]1CO`, -10.8% [at 26 µM]. Turning to `C[C@@H]1CN([C@@H](C)CO)C(=O)Cc2cc(NC(=O)Cn3cnnn3)ccc2O[C@H]1CN(C)Cc1ccc2c(c1)OCO2`, the max activity is -7.75% [at 1.6 µM]. Then `CCNC(=O)[C@@H]1[C@@H](CO)[C@@H]2Cn3c(ccc(-c4cccnc4)c3=O)[C@@H]2N1Cc1ccc2c(c1)OCO2`, with 16.2% [at 0.38 µM]; and `C/C=C/c1ccc2c(c1)O[C@@H](CN(C)C(=O)Nc1ccccc1)[C@H](C)CN([C@H](C)CO)S2(=O)=O`, with -9.7% [at 0.38 µM]. Then `O=C(c1cccc(F)c1)N1CC[C@@H]2[C@H](CO)Nc3ccc(-c4cccc(F)c4)cc3[C@@H]21`, with -15.4% [at 0.8 µM]; and `C/C=C/c1ccc2c(c1)O[C@@H](CN(C)C(=O)Cc1cccnc1)[C@H](C)CN([C@H](C)CO)S2(=O)=O`, with -11.7% [at 1.6 µM]. For `O=C(C[C@H]1C[C@@H]2c3cc(NC(=O)c4cccnc4)ccc3O[C@@H]2[C@@H](CO)O1)NCC(F)(F)F`, the max activity was -9.14% [at 0.195 µM]. The result for `O=C(C1CCOCC1)N1CC[C@@H]2[C@H](CO)Nc3ccc(Br)cc3[C@@H]21` reads 5.45% [at 0.8 µM]; that for `O=C(C1CC1)N1CC[C@@H]2[C@H](CO)Nc3ccc(Br)cc3[C@@H]21`, 4.87%. The result for `C[C@@H]1CN([C@@H](C)CO)C(=O)c2cc(C#Cc3cccnc3)cnc2O[C@H]1CN(C)S(C)(=O)=O` reads 16.3% [at 0.8 µM]; that for `O=C(C1CC1)N1CC[C@@H]2[C@H]1c1cc(Br)ccc1N[C@@H]2CO`, 39.3% [at 26 µM]. Then `O=C(c1cccc(F)c1)N1CC[C@@H]2[C@@H](CO)Nc3ccc(-c4cccc(F)c4)cc3[C@@H]21`, with -9.33%; and `O=C(C[C@H]1C[C@H]2c3cc(NC(=O)c4cccnc4)ccc3O[C@H]2[C@H](CO)O1)NCc1ccccn1`, with -4.68% [at 1.6 µM]; and `CCN1[C@H](C(=O)NCc2ccccc2)[C@@H](CO)[C@@H]2Cn3c(ccc(-c4cccnc4)c3=O)[C@@H]21`, with 13.5% [at 3 µM]. As for `C[C@@H]1CN([C@H](C)CO)C(=O)c2cc(C#Cc3cccnc3)cnc2O[C@H]1CN(C)S(C)(=O)=O`, the max activity is 16.9% [at 0.8 µM]. With `COC(=O)[C@@H]1[C@@H](CO)[C@@H]2Cn3c(ccc(-c4ccccc4)c3=O)[C@@H]2N1Cc1cccc(F)c1`, the max activity was -16.8% [at 13.5 µM]. Then `CCNC(=O)[C@H]1[C@H](CO)[C@H]2Cn3c(ccc(-c4ccccc4)c3=O)[C@H]2N1C(=O)Cc1cccnc1`, with 10.4% [at 0.8 µM]; and `O=C(Nc1ccc2c(c1)[C@H]1C[C@@H](CC(=O)N3CCc4ccccc4C3)O[C@H](CO)[C@H]1O2)c1cccnc1`, with -8.01% [at 6.8 µM]; and `CN1c2ccc(-c3cccc(F)c3)cc2[C@H]2[C@H](CCN2C(=O)C2CC2)[C@H]1CO`, with 12.4% [at 0.75 µM]. Then `C/C=C/c1ccc2c(c1)O[C@@H](CN(C)C(=O)c1ccc3c(c1)OCO3)[C@@H](C)CN([C@@H](C)CO)S2(=O)=O`, with 20.2% [at 0.38 µM]; and `CNC(=O)C[C@H]1CC[C@@H]2[C@H](COC[C@@H](O)CN2C(=O)Nc2ccc3c(c2)OCO3)O1`, with -9.95% [at 1.6 µM]. Then `CNC(=O)C[C@H]1CC[C@@H]2[C@H](COC[C@@H](O)CN2C(=O)Nc2cccc(OC)c2)O1`, with -13.9%; and `COc1cccc(-c2ccc3c(c2)[C@H]2[C@H](CCN2C(=O)C2CCC2)[C@@H](CO)N3)c1`, with -8.62% [at 26 µM]; and `CC(=O)N1CC[C@@H]2[C@@H](CO)N(C)c3ccc(-c4cccc(F)c4)cc3[C@@H]21`, with -7.89% [at 13.5 µM]. On to `CCC(=O)N1CC[C@@H]2[C@H]1c1cc(-c3cccc(F)c3)ccc1N(C)[C@H]2CO`, for which the max activity was found to be 8.59% [at 0.195 µM]. Then `O=C(c1ccccc1F)N1CC[C@@H]2[C@H](CO)Nc3ccc(Br)cc3[C@@H]21`, with -7.95% [at 0.38 µM].

Take `CN1c2ccc(-c3ccccc3)cc2[C@H]2[C@H](CCN2C(=O)c2ccccc2F)[C@H]1CO`: the max activity was -14.5% [at 3 µM].

On to `CN1c2ccc(-c3cccc(F)c3)cc2[C@H]2[C@H](CCN2C(=O)C2CCOCC2)[C@H]1CO`, for which the max activity is 8.43% [at 0.38 µM]. Then `C/C=C/c1ccc2c(c1)O[C@@H](CN(C)C(=O)Nc1ccc(F)cc1)[C@@H](C)CN([C@@H](C)CO)S2(=O)=O`, with -14.5%; and `CNC(=O)C[C@H]1CC[C@@H]2[C@H](COC[C@@H](O)CN2C(=O)Nc2ccc(Cl)c(Cl)c2)O1`, with -20.5% [at 0.8 µM].

For `CN(C)C(=O)C[C@@H]1C[C@@H]2c3cc(NC(=O)c4cccnc4)ccc3O[C@@H]2[C@@H](CO)O1`, the max activity is -7.52% [at 0.8 µM].
